# Laboratory results published in the supplement of paper PMC10849652.
# By UniProt entry, the sequences of proteins in these tests, tags left out. Where a name states a change or a piece, a line headed by the entry shows the natural chain unless it says otherwise.
# UniProt Q9P244: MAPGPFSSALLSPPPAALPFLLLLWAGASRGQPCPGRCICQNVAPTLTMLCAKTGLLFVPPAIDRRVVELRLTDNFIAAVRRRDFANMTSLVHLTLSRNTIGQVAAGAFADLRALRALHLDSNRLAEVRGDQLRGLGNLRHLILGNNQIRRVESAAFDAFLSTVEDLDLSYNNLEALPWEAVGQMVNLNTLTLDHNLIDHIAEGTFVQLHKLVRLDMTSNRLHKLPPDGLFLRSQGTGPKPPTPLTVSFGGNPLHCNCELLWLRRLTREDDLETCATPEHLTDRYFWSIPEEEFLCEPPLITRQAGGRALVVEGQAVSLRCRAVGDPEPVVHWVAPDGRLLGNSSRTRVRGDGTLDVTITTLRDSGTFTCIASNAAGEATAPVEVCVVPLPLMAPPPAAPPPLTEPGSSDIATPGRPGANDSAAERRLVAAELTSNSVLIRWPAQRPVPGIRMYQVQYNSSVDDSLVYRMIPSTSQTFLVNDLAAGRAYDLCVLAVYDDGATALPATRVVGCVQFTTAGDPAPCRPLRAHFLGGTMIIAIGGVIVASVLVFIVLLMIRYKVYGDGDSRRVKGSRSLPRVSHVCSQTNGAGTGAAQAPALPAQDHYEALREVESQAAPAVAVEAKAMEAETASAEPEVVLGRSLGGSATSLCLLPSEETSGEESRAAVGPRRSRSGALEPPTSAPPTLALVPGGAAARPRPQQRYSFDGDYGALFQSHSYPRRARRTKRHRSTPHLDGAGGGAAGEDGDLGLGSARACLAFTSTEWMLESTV
# UniProt O75427: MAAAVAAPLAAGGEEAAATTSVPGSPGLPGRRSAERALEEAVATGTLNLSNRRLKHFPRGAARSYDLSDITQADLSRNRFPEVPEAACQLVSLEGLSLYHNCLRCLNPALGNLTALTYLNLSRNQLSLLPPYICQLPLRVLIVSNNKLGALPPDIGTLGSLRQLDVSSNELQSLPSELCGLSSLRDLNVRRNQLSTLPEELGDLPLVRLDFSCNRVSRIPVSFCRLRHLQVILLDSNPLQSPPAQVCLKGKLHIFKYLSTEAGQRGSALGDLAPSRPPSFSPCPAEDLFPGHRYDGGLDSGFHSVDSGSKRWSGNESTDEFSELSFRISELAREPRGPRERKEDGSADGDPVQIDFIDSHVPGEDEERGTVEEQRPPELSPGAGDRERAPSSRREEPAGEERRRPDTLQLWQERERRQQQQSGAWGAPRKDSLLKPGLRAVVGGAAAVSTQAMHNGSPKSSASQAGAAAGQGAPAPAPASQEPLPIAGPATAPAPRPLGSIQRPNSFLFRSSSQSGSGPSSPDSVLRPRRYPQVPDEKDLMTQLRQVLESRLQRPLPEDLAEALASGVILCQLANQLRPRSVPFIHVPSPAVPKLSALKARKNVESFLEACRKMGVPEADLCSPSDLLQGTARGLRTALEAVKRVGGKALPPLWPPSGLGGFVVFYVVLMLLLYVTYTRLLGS
# UniProt P28300: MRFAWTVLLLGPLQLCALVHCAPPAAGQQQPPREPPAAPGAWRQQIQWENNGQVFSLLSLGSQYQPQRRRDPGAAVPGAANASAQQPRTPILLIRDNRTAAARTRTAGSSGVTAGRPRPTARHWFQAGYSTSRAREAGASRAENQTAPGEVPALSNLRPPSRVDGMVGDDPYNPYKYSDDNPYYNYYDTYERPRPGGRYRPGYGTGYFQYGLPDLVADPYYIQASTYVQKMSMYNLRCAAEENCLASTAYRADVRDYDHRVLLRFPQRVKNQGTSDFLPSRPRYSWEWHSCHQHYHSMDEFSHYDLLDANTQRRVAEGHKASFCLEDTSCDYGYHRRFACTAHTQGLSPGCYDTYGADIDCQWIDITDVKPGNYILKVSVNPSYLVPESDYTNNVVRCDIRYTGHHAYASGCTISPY
# UniProt Q9BT23: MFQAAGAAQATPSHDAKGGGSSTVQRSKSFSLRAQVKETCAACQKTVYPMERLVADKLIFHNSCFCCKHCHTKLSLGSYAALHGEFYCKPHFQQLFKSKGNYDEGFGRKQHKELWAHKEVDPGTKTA
# UniProt Q96GY3: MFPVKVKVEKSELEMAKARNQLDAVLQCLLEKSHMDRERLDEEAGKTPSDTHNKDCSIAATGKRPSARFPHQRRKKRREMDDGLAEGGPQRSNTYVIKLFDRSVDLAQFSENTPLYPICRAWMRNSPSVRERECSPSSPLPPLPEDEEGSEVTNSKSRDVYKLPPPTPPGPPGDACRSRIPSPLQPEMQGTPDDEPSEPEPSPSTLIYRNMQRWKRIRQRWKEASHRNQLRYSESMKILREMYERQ
# UniProt Q53QV2: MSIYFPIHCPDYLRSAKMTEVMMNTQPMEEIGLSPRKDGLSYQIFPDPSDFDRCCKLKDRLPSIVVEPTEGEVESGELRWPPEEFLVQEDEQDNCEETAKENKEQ
# UniProt Q643R3: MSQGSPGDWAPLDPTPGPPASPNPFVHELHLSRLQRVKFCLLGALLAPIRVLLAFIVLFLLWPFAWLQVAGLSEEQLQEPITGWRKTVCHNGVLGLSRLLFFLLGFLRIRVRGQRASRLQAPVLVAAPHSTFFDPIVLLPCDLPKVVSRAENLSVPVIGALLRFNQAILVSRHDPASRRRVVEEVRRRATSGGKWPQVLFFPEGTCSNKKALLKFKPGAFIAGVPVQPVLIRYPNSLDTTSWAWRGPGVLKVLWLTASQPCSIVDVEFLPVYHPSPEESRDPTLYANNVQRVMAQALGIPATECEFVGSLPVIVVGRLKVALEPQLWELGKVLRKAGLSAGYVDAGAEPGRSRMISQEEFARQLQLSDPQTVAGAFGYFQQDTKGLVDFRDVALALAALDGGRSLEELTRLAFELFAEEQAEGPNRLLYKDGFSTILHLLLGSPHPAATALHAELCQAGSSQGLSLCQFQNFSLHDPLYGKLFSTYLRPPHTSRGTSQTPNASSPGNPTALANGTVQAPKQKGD
# UniProt O15230: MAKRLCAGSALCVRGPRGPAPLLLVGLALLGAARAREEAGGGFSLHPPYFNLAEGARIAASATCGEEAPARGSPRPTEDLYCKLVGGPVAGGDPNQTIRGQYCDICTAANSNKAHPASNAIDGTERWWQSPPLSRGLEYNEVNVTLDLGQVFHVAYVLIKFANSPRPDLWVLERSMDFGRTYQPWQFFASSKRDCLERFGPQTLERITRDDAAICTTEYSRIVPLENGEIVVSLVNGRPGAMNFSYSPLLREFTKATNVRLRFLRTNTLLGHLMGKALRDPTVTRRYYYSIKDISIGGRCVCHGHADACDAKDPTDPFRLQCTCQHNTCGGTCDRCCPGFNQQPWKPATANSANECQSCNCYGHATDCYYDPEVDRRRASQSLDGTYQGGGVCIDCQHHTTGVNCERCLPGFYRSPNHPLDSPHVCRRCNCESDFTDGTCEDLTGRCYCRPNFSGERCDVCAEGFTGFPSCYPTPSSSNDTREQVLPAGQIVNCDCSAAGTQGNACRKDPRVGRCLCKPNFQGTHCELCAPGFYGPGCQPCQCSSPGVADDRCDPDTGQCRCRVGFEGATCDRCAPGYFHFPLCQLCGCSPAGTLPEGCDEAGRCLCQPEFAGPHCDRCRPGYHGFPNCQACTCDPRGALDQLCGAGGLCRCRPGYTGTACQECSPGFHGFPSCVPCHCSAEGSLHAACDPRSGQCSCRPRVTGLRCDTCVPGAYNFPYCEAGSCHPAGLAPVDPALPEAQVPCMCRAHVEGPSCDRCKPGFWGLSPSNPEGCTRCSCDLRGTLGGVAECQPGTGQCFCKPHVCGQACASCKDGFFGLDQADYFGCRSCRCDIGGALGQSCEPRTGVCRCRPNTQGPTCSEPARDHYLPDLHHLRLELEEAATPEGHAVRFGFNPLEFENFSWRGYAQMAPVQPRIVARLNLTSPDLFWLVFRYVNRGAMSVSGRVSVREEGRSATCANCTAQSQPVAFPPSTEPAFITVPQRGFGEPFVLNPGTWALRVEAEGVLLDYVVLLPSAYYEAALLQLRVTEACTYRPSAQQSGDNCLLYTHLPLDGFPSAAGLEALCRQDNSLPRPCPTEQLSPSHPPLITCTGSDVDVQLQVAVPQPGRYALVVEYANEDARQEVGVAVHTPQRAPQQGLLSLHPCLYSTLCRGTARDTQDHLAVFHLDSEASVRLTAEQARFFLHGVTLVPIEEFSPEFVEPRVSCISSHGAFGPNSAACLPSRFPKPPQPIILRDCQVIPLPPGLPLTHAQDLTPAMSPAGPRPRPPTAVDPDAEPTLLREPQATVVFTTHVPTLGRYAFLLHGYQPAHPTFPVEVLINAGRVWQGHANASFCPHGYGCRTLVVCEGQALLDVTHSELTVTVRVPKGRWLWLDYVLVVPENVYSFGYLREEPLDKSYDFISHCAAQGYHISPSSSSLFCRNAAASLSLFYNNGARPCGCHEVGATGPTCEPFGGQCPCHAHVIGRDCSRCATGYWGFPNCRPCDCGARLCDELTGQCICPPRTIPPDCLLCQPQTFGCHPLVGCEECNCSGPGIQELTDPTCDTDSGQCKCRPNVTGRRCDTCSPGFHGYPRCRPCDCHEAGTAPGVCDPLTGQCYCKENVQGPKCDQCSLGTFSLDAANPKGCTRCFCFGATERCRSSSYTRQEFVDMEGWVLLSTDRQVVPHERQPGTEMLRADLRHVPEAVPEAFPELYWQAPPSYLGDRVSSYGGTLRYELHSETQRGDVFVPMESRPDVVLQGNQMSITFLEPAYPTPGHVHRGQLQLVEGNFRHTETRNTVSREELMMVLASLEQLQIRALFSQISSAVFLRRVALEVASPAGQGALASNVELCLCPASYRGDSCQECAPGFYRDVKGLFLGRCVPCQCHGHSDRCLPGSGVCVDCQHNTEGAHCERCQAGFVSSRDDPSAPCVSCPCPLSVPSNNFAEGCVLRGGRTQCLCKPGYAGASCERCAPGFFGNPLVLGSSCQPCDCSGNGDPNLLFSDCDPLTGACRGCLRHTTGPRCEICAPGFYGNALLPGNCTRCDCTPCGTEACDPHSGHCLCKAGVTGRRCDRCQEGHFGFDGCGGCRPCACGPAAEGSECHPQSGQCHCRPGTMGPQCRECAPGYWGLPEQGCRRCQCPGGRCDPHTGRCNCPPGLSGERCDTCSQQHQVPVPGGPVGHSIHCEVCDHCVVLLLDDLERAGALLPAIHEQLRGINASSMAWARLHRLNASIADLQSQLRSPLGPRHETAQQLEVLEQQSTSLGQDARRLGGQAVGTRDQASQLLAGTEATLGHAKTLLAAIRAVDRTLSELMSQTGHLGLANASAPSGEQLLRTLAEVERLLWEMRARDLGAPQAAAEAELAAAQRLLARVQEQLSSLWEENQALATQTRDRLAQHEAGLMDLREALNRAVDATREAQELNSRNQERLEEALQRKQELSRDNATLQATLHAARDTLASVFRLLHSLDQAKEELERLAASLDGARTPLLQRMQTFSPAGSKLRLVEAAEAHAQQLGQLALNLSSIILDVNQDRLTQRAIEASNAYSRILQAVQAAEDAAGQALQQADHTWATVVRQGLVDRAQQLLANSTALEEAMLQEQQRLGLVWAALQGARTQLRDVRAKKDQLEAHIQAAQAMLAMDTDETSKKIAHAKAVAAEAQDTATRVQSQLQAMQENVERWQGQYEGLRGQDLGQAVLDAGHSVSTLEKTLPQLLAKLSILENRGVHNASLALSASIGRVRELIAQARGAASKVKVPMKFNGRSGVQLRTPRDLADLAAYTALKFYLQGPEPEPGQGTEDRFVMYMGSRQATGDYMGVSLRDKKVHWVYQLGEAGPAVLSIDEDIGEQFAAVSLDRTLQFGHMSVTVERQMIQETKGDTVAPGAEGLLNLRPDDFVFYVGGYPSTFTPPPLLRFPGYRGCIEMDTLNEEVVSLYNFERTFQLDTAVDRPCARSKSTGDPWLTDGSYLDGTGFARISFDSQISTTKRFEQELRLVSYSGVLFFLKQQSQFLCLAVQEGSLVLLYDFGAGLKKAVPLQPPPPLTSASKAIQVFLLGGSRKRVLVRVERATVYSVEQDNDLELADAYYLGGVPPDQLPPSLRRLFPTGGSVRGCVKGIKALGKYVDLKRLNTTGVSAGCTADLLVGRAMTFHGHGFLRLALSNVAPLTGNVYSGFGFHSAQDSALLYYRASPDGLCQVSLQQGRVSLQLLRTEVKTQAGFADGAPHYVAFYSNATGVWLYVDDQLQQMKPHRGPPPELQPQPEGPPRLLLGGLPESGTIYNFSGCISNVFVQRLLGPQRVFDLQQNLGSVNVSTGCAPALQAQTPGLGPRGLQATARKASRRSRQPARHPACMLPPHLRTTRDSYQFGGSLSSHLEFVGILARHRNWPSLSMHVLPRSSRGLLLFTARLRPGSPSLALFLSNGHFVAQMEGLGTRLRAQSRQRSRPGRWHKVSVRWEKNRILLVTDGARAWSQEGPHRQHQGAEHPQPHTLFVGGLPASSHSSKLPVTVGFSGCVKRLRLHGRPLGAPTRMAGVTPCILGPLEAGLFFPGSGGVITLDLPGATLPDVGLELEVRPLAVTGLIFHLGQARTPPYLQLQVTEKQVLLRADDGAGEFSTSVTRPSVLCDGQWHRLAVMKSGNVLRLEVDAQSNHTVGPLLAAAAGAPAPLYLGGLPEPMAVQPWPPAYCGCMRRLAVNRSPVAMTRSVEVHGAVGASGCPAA
# Some of the results follow.
# How the values were obtained:
# Experiment in all cases: log2 fold change, soluble protein after heating vs DMSO (PISA); higher = thermal stabilisation; K562 cells, 10 uM, 30 min; active = over 0.2 and 3.5 SD of the protein, either way, in both replicates (recomputed)
# dasatinib = compound: Cc1nc(Nc2ncc(C(=O)Nc3c(C)cccc3Cl)s2)cc(N2CCN(CCO)CC2)n1 [dasatinib]
# Method in brief: (§1)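 Values are thermal stability changes relative to control samples and are taken from duplicates. They are stated as log2 fold changes. Before quantification by TMTpro 16plex LC-MS/MS with equalised channel sums, K562 cells at 2×10^6 cells/mL were treated with 10 μM compound for 30 min, heated in aliquots for 3 min across 48°C-58°C, pooled, extracted in PBS with 0.5% NP-40 at 4°C, and centrifuged at 21,000xg for 90 min to give the soluble supernatant.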
# mubritinib = compound: FC(F)(F)c1ccc(/C=C/c2nc(COc3ccc(CCCCn4ccnn4)cc3)co2)cc1 [mubritinib]
# Method in brief: as §1
# [1] = compound: Cc1cccc(CC(=O)N2CCc3c2ccc(-c2cn(C)c4ncnc(N)c24)c3F)n1
# Method in brief: as §1
# bafetinib = compound: Cc1ccc(NC(=O)c2ccc(CN3CC[C@H](N(C)C)C3)c(C(F)(F)F)c2)cc1Nc1nccc(-c2cncnc2)n1 [bafetinib]
# Method in brief: as §1
# tipifarnib = compound: Cn1cncc1[C@@](N)(c1ccc(Cl)cc1)c1ccc2c(c1)c(-c1cccc(Cl)c1)cc(=O)n2C [tipifarnib]
# Method in brief: as §1
# nilotinib = compound: Cc1cn(-c2cc(NC(=O)c3ccc(C)c(Nc4nccc(-c5cccnc5)n4)c3)cc(C(F)(F)F)c2)cn1 [nilotinib]
# Method in brief: as §1
# [2] = compound: Cc1nc(Nc2n[nH]c3c2CN(C(=O)N[C@H](CN(C)C)c2ccccc2)C3(C)C)c2sccc2n1
# Method in brief: as §1
# [3] = compound: Cc1ncc(-c2ccnc(Nc3ccc(S(C)(=O)=O)cc3)n2)n1C(C)C
# Method in brief: as §1
# [4] = compound: Cn1cc(-c2ccc3nnc(C(F)(F)c4ccc5ncccc5c4)n3n2)cn1
# Method in brief: as §1
# [5] = compound: Cn1cc(-c2ccc3c(c2)CCN3C(=O)Cc2cccc(C(F)(F)F)c2)c2c(N)ncnc21
# Method in brief: as §1
target,measurement,setting,value
LGALSL (UniProt Q3ZCW2),log2 fold change,dasatinib,inactive: -0.114
same,log2 fold change,mubritinib,inactive: -0.284
LATS1 (UniProt O95835),log2 fold change,[1],inactive: -0.075
LRRC41 (UniProt Q15345),log2 fold change,bafetinib,inactive: -0.419
same,log2 fold change,tipifarnib,inactive: 0.015
LGALS3BP (UniProt Q08380),log2 fold change,nilotinib,inactive: 0.063
same,log2 fold change,[2],inactive: -0.116
same,log2 fold change,[3],inactive: 0.056
LDLRAP1 (UniProt Q5SW96),log2 fold change,bafetinib,inactive: -0.011
same,log2 fold change,[4],inactive: 0.14
LOR (UniProt P23490),log2 fold change,mubritinib,inactive: -0.579
LIMK1 (UniProt P53667),log2 fold change,bafetinib,inactive: -0.05
same,log2 fold change,tipifarnib,inactive: -0.089
LRFN1 (UniProt Q9P244),log2 fold change,bafetinib,inactive: -0.017
same,log2 fold change,dasatinib,inactive: -0.129
same,log2 fold change,[5],inactive: 0.178
same,log2 fold change,[4],inactive: 0.011
same,log2 fold change,tipifarnib,inactive: -0.026
LBHD1 (UniProt Q9BQE6),log2 fold change,[5],inactive: -0.119
LIPT1 (UniProt Q9Y234),log2 fold change,mubritinib,inactive: -0.701
LIG4 (UniProt P49917),log2 fold change,[1],inactive: -0.198
same,log2 fold change,nilotinib,inactive: -0.009
same,log2 fold change,[2],inactive: 0.016
same,log2 fold change,dasatinib,inactive: -0.218
same,log2 fold change,[3],inactive: 0.058
LRP1 (UniProt Q07954),log2 fold change,[1],inactive: -0.038
same,log2 fold change,nilotinib,inactive: -0.375
same,log2 fold change,[2],inactive: -0.107
same,log2 fold change,dasatinib,inactive: 0.083
same,log2 fold change,[3],inactive: -0.109
same,log2 fold change,mubritinib,inactive: 0.194
LRCH4 (UniProt O75427),log2 fold change,[1],inactive: 0.067
same,log2 fold change,dasatinib,inactive: -0.039
same,log2 fold change,[4],inactive: -0.147
LOX (UniProt P28300),log2 fold change,bafetinib,active: -0.734
same,log2 fold change,nilotinib,inactive: -0.183
same,log2 fold change,[2],inactive: 0.175
same,log2 fold change,[3],inactive: 0.12
same,log2 fold change,mubritinib,inactive: -0.017
LIN9 isoform 2 (UniProt Q5TKA1),log2 fold change,bafetinib,inactive: 0.095
same,log2 fold change,[5],inactive: -0.018
same,log2 fold change,[4],inactive: -0.032
LDHD (UniProt Q86WU2),log2 fold change,[5],inactive: -0.102
LIPT2 (UniProt A6NK58),log2 fold change,dasatinib,inactive: -0.035
LPL (UniProt P06858),log2 fold change,[1],inactive: -0.088
same,log2 fold change,dasatinib,inactive: 0.111
same,log2 fold change,[5],inactive: -0.183
same,log2 fold change,tipifarnib,inactive: 0.032
same,log2 fold change,mubritinib,inactive: -0.034
L1TD1 (UniProt Q5T7N2),log2 fold change,[1],inactive: 0.093
same,log2 fold change,dasatinib,inactive: 0.061
same,log2 fold change,[5],inactive: -0.191
same,log2 fold change,mubritinib,inactive: 0.087
LGMN (UniProt Q99538),log2 fold change,[1],inactive: -0.159
same,log2 fold change,tipifarnib,inactive: 0.046
LIMD2 (UniProt Q9BT23),log2 fold change,[5],inactive: -0.034
same,log2 fold change,tipifarnib,inactive: -0.125
LAMB2 (UniProt P55268),log2 fold change,dasatinib,inactive: -0.014
same,log2 fold change,[4],inactive: 0.031
same,log2 fold change,tipifarnib,inactive: 0.041
same,log2 fold change,mubritinib,inactive: 0.339
LAMC1 (UniProt P11047),log2 fold change,[1],inactive: -0.045
same,log2 fold change,dasatinib,inactive: -0.536
LRP5 (UniProt O75197),log2 fold change,[1],inactive: -0.013
same,log2 fold change,nilotinib,inactive: -0.131
same,log2 fold change,[2],inactive: 0.089
same,log2 fold change,dasatinib,inactive: 0.115
same,log2 fold change,[3],inactive: -0.011
same,log2 fold change,[5],inactive: -0.027
same,log2 fold change,tipifarnib,inactive: 0.087
LLGL1 (UniProt Q15334),log2 fold change,dasatinib,inactive: 0.158
same,log2 fold change,[5],inactive: -0.137
same,log2 fold change,tipifarnib,inactive: 0.129
LIN37 (UniProt Q96GY3),log2 fold change,[1],inactive: -0.249
same,log2 fold change,tipifarnib,inactive: 0.012
LMLN isoform 3 (UniProt Q96KR4),log2 fold change,bafetinib,inactive: 0
same,log2 fold change,dasatinib,inactive: -0.291
same,log2 fold change,tipifarnib,inactive: 0.191
"LARP1B, A0A3B3ISF0",log2 fold change,[1],inactive: 0.016
same,log2 fold change,[4],inactive: -0.13
same,log2 fold change,tipifarnib,inactive: 0.011
LIMS1 isoform 5 (UniProt P48059),log2 fold change,[5],inactive: -0.118
LIG3 (UniProt P49916),log2 fold change,[1],inactive: -0.243
same,log2 fold change,nilotinib,inactive: 0.068
same,log2 fold change,[2],inactive: 0.069
same,log2 fold change,dasatinib,inactive: 0.017
same,log2 fold change,[3],inactive: -0.025
same,log2 fold change,[5],inactive: 0.17
same,log2 fold change,tipifarnib,inactive: 0.09
same,log2 fold change,mubritinib,inactive: 0.183
LBH (UniProt Q53QV2),log2 fold change,nilotinib,inactive: 0.029
same,log2 fold change,[2],inactive: 0.019
same,log2 fold change,[3],inactive: -0.082
same,log2 fold change,[4],inactive: 0.04
same,log2 fold change,tipifarnib,inactive: 0.089
same,log2 fold change,mubritinib,inactive: 0.032
LINS1 (UniProt Q8NG48),log2 fold change,bafetinib,inactive: -0.062
same,log2 fold change,[4],inactive: -0.081
same,log2 fold change,mubritinib,inactive: 0.157
LIN52 (UniProt Q52LA3),log2 fold change,dasatinib,inactive: -0.049
same,log2 fold change,mubritinib,inactive: -0.117
LRG1 (UniProt P02750),log2 fold change,[1],inactive: 0.001
same,log2 fold change,dasatinib,inactive: 0.028
same,log2 fold change,[5],inactive: 0.182
same,log2 fold change,[4],inactive: 0.121
same,log2 fold change,tipifarnib,inactive: 0.072
same,log2 fold change,mubritinib,inactive: 0.021
LPCAT4 (UniProt Q643R3),log2 fold change,[5],inactive: -0.202
LAMA5 (UniProt O15230),log2 fold change,[1],inactive: -0.061
same,log2 fold change,nilotinib,inactive: -0.101
same,log2 fold change,[2],inactive: -0.047
same,log2 fold change,dasatinib,inactive: 0.054
same,log2 fold change,[3],inactive: -0.149
same,log2 fold change,[5],inactive: -0.256
same,log2 fold change,mubritinib,inactive: -0.303
LRMP (UniProt Q12912),log2 fold change,[4],inactive: 0.278
LRP8 (UniProt E9PP15),log2 fold change,bafetinib,inactive: -0.372
same,log2 fold change,dasatinib,inactive: 0.033
same,log2 fold change,[5],inactive: -0.057
same,log2 fold change,[4],inactive: -0.018
same,log2 fold change,tipifarnib,inactive: 0.093
same,log2 fold change,mubritinib,inactive: 0.088

# 35 entries from above, tab-delimited.
target	measurement	setting	value
LIMD2 (UniProt Q9BT23)	log2 fold change	[5]	inactive: -0.034
same	log2 fold change	tipifarnib	inactive: -0.125
LAMB2 (UniProt P55268)	log2 fold change	dasatinib	inactive: -0.014
same	log2 fold change	[4]	inactive: 0.031
same	log2 fold change	tipifarnib	inactive: 0.041
same	log2 fold change	mubritinib	inactive: 0.339
LAMC1 (UniProt P11047)	log2 fold change	[1]	inactive: -0.045
same	log2 fold change	dasatinib	inactive: -0.536
LRP5 (UniProt O75197)	log2 fold change	[1]	inactive: -0.013
same	log2 fold change	nilotinib	inactive: -0.131
same	log2 fold change	[2]	inactive: 0.089
same	log2 fold change	dasatinib	inactive: 0.115
same	log2 fold change	[3]	inactive: -0.011
same	log2 fold change	[5]	inactive: -0.027
same	log2 fold change	tipifarnib	inactive: 0.087
LLGL1 (UniProt Q15334)	log2 fold change	dasatinib	inactive: 0.158
same	log2 fold change	[5]	inactive: -0.137
same	log2 fold change	tipifarnib	inactive: 0.129
LIN37 (UniProt Q96GY3)	log2 fold change	[1]	inactive: -0.249
same	log2 fold change	tipifarnib	inactive: 0.012
LMLN isoform 3 (UniProt Q96KR4)	log2 fold change	bafetinib	inactive: 0
same	log2 fold change	dasatinib	inactive: -0.291
same	log2 fold change	tipifarnib	inactive: 0.191
LARP1B, A0A3B3ISF0	log2 fold change	[1]	inactive: 0.016
same	log2 fold change	[4]	inactive: -0.13
same	log2 fold change	tipifarnib	inactive: 0.011
LIMS1 isoform 5 (UniProt P48059)	log2 fold change	[5]	inactive: -0.118
LIG3 (UniProt P49916)	log2 fold change	[1]	inactive: -0.243
same	log2 fold change	nilotinib	inactive: 0.068
same	log2 fold change	[2]	inactive: 0.069
same	log2 fold change	dasatinib	inactive: 0.017
same	log2 fold change	[3]	inactive: -0.025
same	log2 fold change	[5]	inactive: 0.17
same	log2 fold change	tipifarnib	inactive: 0.09
same	log2 fold change	mubritinib	inactive: 0.183
